# Test results taken from the supplement of paper PMC8551327.
# Structures can show the parent of a compound that is named as a salt. This is one part of the list. Cut-off read from the data, not from the text of the source: active = 1.25 or more and inactive = the rest. Single values are uncertain, as repeats are few or missing.
# System: Kcc2-LUC knock-in mouse primary cortical neurons (Kcc2 promoter reporter)
# Test: Kcc2 promoter-driven luciferase activity relative to vehicle control (fold of vehicle (ratio)); higher = stronger Kcc2 promoter activation (Kcc2 expression enhancer)
# Details: 100 nM; 48 h
row,Structure (SMILES),Kcc2 promoter-driven luciferase activity
1,COC(=O)[C@@H]1c2cc3c(c(O)c2[C@@H](O[C@@H]2O[C@@H](C)[C@H](OC)[C@@](C)(OC)[C@H]2OC)C[C@]1(C)O)C(=O)c1c(O)cc2c(c1C3=O)O[C@@H]1O[C@@]2(C)[C@H](O)[C@@H](N(C)C)[C@@H]1O [Nogalamycin],active: 1.43
2,CC[C@]1(O)C[C@H]2CN(CCc3c([nH]c4ccccc34)[C@@](C(=O)OC)(c3cc4c(cc3OC)N(C=O)[C@H]3[C@@](O)(C(=O)OC)[C@H](OC(C)=O)[C@]5(CC)C=CCN6CC[C@]43[C@@H]65)C2)C1 [Vincristine Sulfate],inactive: 0.58
3,COc1ccc2c(c1)O[C@H]1c3ccc(O)cc3OC[C@@H]21 [Medicarpin],inactive: 1.12
4,CCCc1cc(=O)oc2c3c(c4c(c12)OC(C)(C)C=C4)O[C@H](C)[C@@H](C)[C@@H]3O,inactive: 0.985
5,"O=C1C=Cc2ncccc2C1=O [5,6-Quinolinedione]",active: 1.26
6,CC[C@]1(O)C[C@@H]2CN(CCc3c([nH]c4ccccc34)[C@@](C(=O)OC)(c3cc4c(cc3OC)N(C)[C@H]3[C@@](O)(C(=O)OC)[C@H](OC(C)=O)[C@]5(CC)C=CCN6CC[C@]43[C@@H]65)C2)C1 [Vinblastine sulfate],inactive: 0.79
7,"COC(=O)c1ccc(NCc2cc(O)ccc2O)cc1 [Methyl 4-(2,5-dihydroxyphenyl methylamino) benzoate]",inactive: 1.04
8,COc1nc(N)nc2nc[nH]c12 [6-methoxyguanine],inactive: 1.16
9,CCCCCc1cc(O)cc2c1Oc1cc(O)cc(C(=O)CCCC)c1C(=O)O2 [Norlobaric Acid],inactive: 1.09
10,O=S1(=O)CCN(c2ccccc2CC(c2c[nH]c3ccccc23)c2c[nH]c3ccccc23)CC1,inactive: 0.48
11,C=C1C(=O)OC2CC(C)C3(O)CCC(=O)C3(C)CC12 (centres undefined) [Sequiterpene Lactone 326],active: 1.36
12,CNC(=S)N/N=C/c1ccc([N+](=O)[O-])s1,inactive: 1.12
13,COC(=O)C1=CO[C@@H](C)[C@@H]2CN3CCc4c([nH]c5cc(OC)c(OC)cc45)[C@H]3C[C@H]12 [Reserpiline Oxalate],inactive: 0.925
14,O=C1c2ccccc2C(=O)c2c(O)c(O)cc(O)c21,inactive: 1.15
15,"COc1cc2cc3c4cc(OC)c(OC)cc4cc[n+]3c(C)c2cc1OC.O=C(O)CS(=O)(=O)[O-] [Coralyne sulfoacetate, ; Monoanhydride with sulfuric acid]",inactive: 0.666
16,COc1cc(NC(C)CCCN)c2ncccc2c1 (centres undefined),inactive: 0.41
17,"[O-][S+]1c2ccccc2N=C(c2cccc3ccccc23)CC1c1cccc2ccccc12 (centres undefined) [2,4-dinaphthalen-1-yl-2,3-dihydro-1]",inactive: 1
18,CC(C)=CCC1=C(O)c2ccccc2C(=O)C1=O [Lapachol],inactive: 1.15
19,Nc1ccc2nc3ccc(=O)cc-3n(-c3ccccc3)c2c1 [8-Amino-10-phenylphenazin-2-one],inactive: 0.97
20,"Clc1cc2nc[nH]c2cc1Cl [5,6-Dichloro-1H-benzimidazole]",inactive: 0.92

row,Structure (SMILES),Kcc2 promoter-driven luciferase activity
1,O=C1c2ccccc2C(=O)c2c(O)c(NCCNCCO)cc(O)c21,inactive: 0.92
2,CC[C@]12CN3CCc4c([nH]c5ccccc45)[C@@](C(=O)OC)(c4cc5c(cc4OC)N(C)[C@H]4[C@@](O)(C(=O)OC)[C@H](OC(C)=O)[C@]6(CC)C=CCN7CC[C@]54[C@@H]76)C[C@@H](C3)[C@H]1O2 [Vinleurosine sulfate],inactive: 0.01
3,N[C@@H](CSC(c1ccccc1)(c1ccccc1)c1ccccc1)C(=O)O [S-Trityl cysteine],inactive: 1.09
4,NC(=O)N/N=C1\CC2C3CC4C2C4C13 (centres undefined),inactive: 0.83
5,CCCCCC[C@@H](C(C)O)n1cnc2c(N)ncnc21 (stereo in doubt) [(2S)-3-(6-Aminopurin-9-yl)nonan-2-ol hydrochloride],inactive: 1.2
6,Nc1nc(-c2cccs2)cs1 [4-(Thiophen-2-yl)thiazol-2-amine],inactive: 1.07
7,CC(C)c1ccc(O)c(=O)cc1 [gamma-thujaplicin],inactive: 1.14
8,C[C@@H]1CC[C@H]2C(C)(C)[C@H]3C[C@@]12CC[C@@]3(C)O [Cedrol],inactive: 0.969
9,O=C(O)CCCCCCCC(O)C(O)CCCCCCO (centres undefined) [Aleuritic Acid],inactive: 1.1
10,CO[C@@H]1C[C@](C)(O)Cc2cc3c(c(O)c21)C(=O)c1c(O)cc2c(c1C3=O)O[C@@H]1O[C@@]2(C)[C@H](O)[C@@H](N(C)C)[C@@H]1O [Menogaril],inactive: 1.18
11,N#CCCN(c1ccc(C=O)cc1)S(=O)(=O)c1ccccc1 [N-(2-Cyanoethyl)-N-(4-formylphenyl)benzenesulfonamide],inactive: 1.13
12,COC1CN(C)C(=Nc2cccc3ccccc23)S1 (centres undefined),inactive: 0.82
13,"S=C1Nc2cnc3ccccc3c2SC1c1ccccc1 (centres undefined) [2-phenyl-4H-[1,4]thiazino[3,2-c]quinoline-3-thione]",active: 1.26
14,O=c1c(Br)c(-c2ccccc2)[nH]c2ccccc12 [3-Bromo-2-phenyl-1H-quinolin-4-one],active: 5.5
15,COc1c2c(cc3c1C1Oc4c(ccc(O)c4CC=C(C)C)C1CO3)OC(C)(C)C=C2 (centres undefined) [Gangetin],inactive: 1.13
16,"O=C(CCc1ccccc1)On1nnc2ccccc2c1=O [(4-Oxo-1,2,3-benzotriazin-3-yl) 3-phenylpropanoate]",inactive: 0.57
17,CN1CCc2cc3c(cc2C(=O)Cc2ccc4c(c2C1)OCO4)OCO3 [Protopine Hydrochloride],active: 1.57
18,CCOC(=O)NC(Nc1ccc(F)cc1)(C(=O)OCC)C(F)(F)F (centres undefined),inactive: 1.02
19,"Cc1ccc(C2NC(=O)c3ccccc3N2)s1 (centres undefined) [2-(5-Methylthiophen-2-yl)-2,3-dihydroquinazolin-4(1H)-one]",inactive: 1.24

# Copied from the list:
# Entry for `O=C(CCc1ccccc1)On1nnc2ccccc2c1=O` [(4-Oxo-1,2,3-benzotriazin-3-yl) 3-phenylpropanoate] under Kcc2 promoter-driven luciferase activity: inactive: 0.57
# Entry for `O=C1c2ccccc2C(=O)c2c(O)c(NCCNCCO)cc(O)c21` under Kcc2 promoter-driven luciferase activity: inactive: 0.92
